Test results from article PMC3887180.
These are yes or no findings as the source states them, for the method shown. In cells and extracts the contact can be indirect. Some results given as binding are weak or reduced against the parent protein; the word gives no strength. For some of these results: Tags and fused reporters may be left off the sequences shown.

Protein sequences, listed by entry. Tags and fused reporters are not part of them. Lines headed by an entry give the natural chain unless they say otherwise; changes in a name come on top. Residues count along the entry.
UniProt P32121: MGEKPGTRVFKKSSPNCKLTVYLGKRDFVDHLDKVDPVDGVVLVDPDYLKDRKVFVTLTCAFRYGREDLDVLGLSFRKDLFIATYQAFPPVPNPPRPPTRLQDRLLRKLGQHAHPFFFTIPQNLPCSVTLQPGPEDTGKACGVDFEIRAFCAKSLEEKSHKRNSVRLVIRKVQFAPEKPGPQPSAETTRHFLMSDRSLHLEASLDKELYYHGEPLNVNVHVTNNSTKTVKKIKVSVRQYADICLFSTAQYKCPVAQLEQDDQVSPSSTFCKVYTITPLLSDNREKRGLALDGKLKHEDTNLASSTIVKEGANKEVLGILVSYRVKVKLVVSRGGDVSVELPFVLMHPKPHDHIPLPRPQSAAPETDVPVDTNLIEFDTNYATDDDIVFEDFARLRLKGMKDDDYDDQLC
FLAG-β-arrestin2 (amino acids 163–300): residues 163-300 of P32121
UniProt Q9BTU6: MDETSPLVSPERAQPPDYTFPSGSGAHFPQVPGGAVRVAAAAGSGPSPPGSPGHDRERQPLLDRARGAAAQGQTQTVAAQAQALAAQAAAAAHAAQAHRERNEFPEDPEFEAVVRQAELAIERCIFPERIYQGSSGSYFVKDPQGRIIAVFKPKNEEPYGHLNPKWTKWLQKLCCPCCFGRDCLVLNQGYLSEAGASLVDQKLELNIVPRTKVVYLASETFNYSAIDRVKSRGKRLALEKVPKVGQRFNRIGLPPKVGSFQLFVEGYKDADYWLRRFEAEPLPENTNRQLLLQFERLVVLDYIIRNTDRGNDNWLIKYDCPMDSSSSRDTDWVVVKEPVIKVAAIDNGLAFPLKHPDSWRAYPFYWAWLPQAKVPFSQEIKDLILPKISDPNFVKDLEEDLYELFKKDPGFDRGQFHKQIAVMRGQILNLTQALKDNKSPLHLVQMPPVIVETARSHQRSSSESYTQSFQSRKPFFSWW
UniProt O14986: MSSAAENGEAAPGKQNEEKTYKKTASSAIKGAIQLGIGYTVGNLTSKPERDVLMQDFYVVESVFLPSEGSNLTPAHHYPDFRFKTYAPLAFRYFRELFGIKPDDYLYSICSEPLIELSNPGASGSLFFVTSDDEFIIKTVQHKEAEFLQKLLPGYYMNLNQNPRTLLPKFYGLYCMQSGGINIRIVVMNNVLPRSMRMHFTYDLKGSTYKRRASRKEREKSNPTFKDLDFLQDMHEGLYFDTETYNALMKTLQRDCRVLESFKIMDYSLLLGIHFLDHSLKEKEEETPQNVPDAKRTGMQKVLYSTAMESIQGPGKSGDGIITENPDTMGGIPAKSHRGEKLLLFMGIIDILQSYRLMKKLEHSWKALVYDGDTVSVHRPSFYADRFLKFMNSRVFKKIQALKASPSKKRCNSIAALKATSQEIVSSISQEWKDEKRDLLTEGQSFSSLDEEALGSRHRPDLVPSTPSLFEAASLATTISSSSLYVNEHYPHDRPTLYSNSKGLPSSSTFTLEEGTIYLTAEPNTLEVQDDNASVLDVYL

Assays:
[1] = molecular target: FLAG-β-arrestin2 (UniProt P32121); assay: co-IP; overexpressed tagged proteins in HEK293T with or without co-expressed Dvl1, Dvl2 or Dvl3 as competitor; Nonidet P-40 lysis buffer, 4 °C, anti-tag immunoprecipitation; Western blot
[2] = molecular target: FLAG-β-arrestin2 (UniProt P32121); assay: as above; remark: listed apart in the source
[3] = molecular target: FLAG-β-arrestin2 (UniProt P32121); assay: co-IP; overexpressed tagged proteins in HEK293T; Nonidet P-40 lysis buffer (50 mM Tris pH 7.4, 150 mM NaCl, 1 mM EDTA, 0.5% Nonidet P-40), 4 °C, anti-tag antibody and protein G-Sepharose overnight, six washes; Western blot; in Fig. 7A, B with PI4KIIα siRNA or overexpressed PI4KIIα or PIP5KIβ
[4] = molecular target: endogenous β-arrestin2 (NB4 cells) (human (endogenous in NB4)) (UniProt P32121); assay: co-IP; endogenous proteins of NB4 cells (cytoplasmic fraction in Fig. 6C; cells with Wnt3a or control CM for 2 h); precipitation with anti-β-arrestin antibodies A1CT and A2CT, protein G-Sepharose, 4 °C; Western blot
[5] = molecular target: HA-β-arrestin2 (UniProt P32121); assay: co-IP; overexpressed tagged proteins in HEK293T; Nonidet P-40 lysis buffer (50 mM Tris pH 7.4, 150 mM NaCl, 1 mM EDTA, 0.5% Nonidet P-40), 4 °C, anti-tag antibody and protein G-Sepharose overnight, six washes; Western blot; in Fig. 7A, B with PI4KIIα siRNA or overexpressed PI4KIIα or PIP5KIβ
[6] = molecular target: FLAG-β-arrestin2 (UniProt P32121); assay: as above; remark: listed apart in the source
[7] = molecular target: FLAG-β-arrestin2 (amino acids 163–300) (UniProt P32121); assay: as above
[8] = molecular target: HA-β-arrestin2 (UniProt P32121); assay: co-IP; overexpressed tagged proteins in HEK293T with or without co-expressed Dvl1, Dvl2 or Dvl3 as competitor; Nonidet P-40 lysis buffer, 4 °C, anti-tag immunoprecipitation; Western blot

Molecule: HA-PI4KIIα (from UniProt Q9BTU6 1-479) (enzyme)
- binding [1]: binds
- binding [2]: no binding (condition: with overexpressed Dvl3)
- binding [3]: binds

Molecule: HA-PIP5KIβ (from UniProt O14986 1-540) (enzyme)
- binding [1]: binds
- binding [2]: no binding (condition: with overexpressed Dvl3)
- binding [3]: binds

Molecule: endogenous PI4KIIα (NB4 cells) (from UniProt Q9BTU6 1-479) (enzyme)
- binding [4]: binds

B1: FLAG-Amer1 (protein, UniProt Q5JTC6 1-1135)
chain: METQKDEAAQAKGAAASGSTREQTAEKGAKNKAAEATEGPTSEPSSSGPGRLKKTAMKLFGGKKGICTLPSFFGGGRSKGSGKGSSKKGLSKSKTHDGLSEAAHGPEDVVSEGTGFSLPLPELPCQFPSSQSAHGALETGSRCKTSVAGATEKAVAEKFPSMPKPKKGLKGFFSSIRRHRKSKVTGAEQSEPGAKGPERVRARPHEHVSSAPQVPCFEETFQAPRKENANPQDAPGPKVSPTPEPSPPATEKMACKDPEKPMEACASAHVQPKPAPEASSLEEPHSPETGEKVVAGEVNPPNGPVGDPLSLLFGDVTSLKSFDSLTGCGDIIAEQDMDSMTDSMASGGQRANRDGTKRSSCLVTYQGGGEEMALPDDDDEEEEEEEEVELEEEEEEVKEEEEDDDLEYLWETAQMYPRPNMNLGYHPTTSPGHHGYMLLDPVRSYPGLAPGELLTPQSDQQESAPNSDEGYYDSTTPGFEDDSGEALGLVRRDCLPRDSYSGDALYEFYEPDDSLENSPPGDDCLYDLHGRSSEMFDPFLNFEPFLSSRPPGAMETEEERLVTIQKQLLYWELRREQLEAQEARAREAHAREAHAREAYTREAYGREAYAREAHTWEAHGREARTREAQAREVRCRETQVRETQARQEKPVLEYQMRPLGPSVMGLAAGVSGTSQISHRGITSAFPTTASSEPDWRDFRPLEKRYEGTCSKKDQSTCLMQLFQSDAMFEPDMQEANFGGSPRRAYPTYSPPEDPEEEEVEKEGNATVSFSQALVEFTSNGNLFSSMSCSSDSDSSFTQNLPELPPMVTFDIADVERDGEGKCEENPEFHNDEDLAASLEAFELGYYHKHAFNNYHSRFYQGLPWGVSSLPRYLGLPGLHPRPPPAAMALNRRSRSLDTAETLEMELSNSHLVQGYLESDELQAQQEDSDEEDEEEEEGEWSRDSPLSLYTEPPGAYDWPAWAPCPLPVGPGPAWISPNQLDRPSSQSPYRQATCCIPPMTMSISLSVPESRAPGESGPQLARPSHLHLPMGPCYNLQPQASQSMRARPRDVLLPVDEPSCSSSSGGFSPSPLPQAKPVGITHGIPQLPRVRPEHPQPQPTHYGPSSLDLSKERAEQGASLATSYSSTAMNGNLAK
- binding [5]: binds

B2: full-length Amer1 (Fig. 1D, Fig. 7B; tag not told for these panels) (protein, UniProt Q5JTC6 1-1135)
chain: METQKDEAAQAKGAAASGSTREQTAEKGAKNKAAEATEGPTSEPSSSGPGRLKKTAMKLFGGKKGICTLPSFFGGGRSKGSGKGSSKKGLSKSKTHDGLSEAAHGPEDVVSEGTGFSLPLPELPCQFPSSQSAHGALETGSRCKTSVAGATEKAVAEKFPSMPKPKKGLKGFFSSIRRHRKSKVTGAEQSEPGAKGPERVRARPHEHVSSAPQVPCFEETFQAPRKENANPQDAPGPKVSPTPEPSPPATEKMACKDPEKPMEACASAHVQPKPAPEASSLEEPHSPETGEKVVAGEVNPPNGPVGDPLSLLFGDVTSLKSFDSLTGCGDIIAEQDMDSMTDSMASGGQRANRDGTKRSSCLVTYQGGGEEMALPDDDDEEEEEEEEVELEEEEEEVKEEEEDDDLEYLWETAQMYPRPNMNLGYHPTTSPGHHGYMLLDPVRSYPGLAPGELLTPQSDQQESAPNSDEGYYDSTTPGFEDDSGEALGLVRRDCLPRDSYSGDALYEFYEPDDSLENSPPGDDCLYDLHGRSSEMFDPFLNFEPFLSSRPPGAMETEEERLVTIQKQLLYWELRREQLEAQEARAREAHAREAHAREAYTREAYGREAYAREAHTWEAHGREARTREAQAREVRCRETQVRETQARQEKPVLEYQMRPLGPSVMGLAAGVSGTSQISHRGITSAFPTTASSEPDWRDFRPLEKRYEGTCSKKDQSTCLMQLFQSDAMFEPDMQEANFGGSPRRAYPTYSPPEDPEEEEVEKEGNATVSFSQALVEFTSNGNLFSSMSCSSDSDSSFTQNLPELPPMVTFDIADVERDGEGKCEENPEFHNDEDLAASLEAFELGYYHKHAFNNYHSRFYQGLPWGVSSLPRYLGLPGLHPRPPPAAMALNRRSRSLDTAETLEMELSNSHLVQGYLESDELQAQQEDSDEEDEEEEEGEWSRDSPLSLYTEPPGAYDWPAWAPCPLPVGPGPAWISPNQLDRPSSQSPYRQATCCIPPMTMSISLSVPESRAPGESGPQLARPSHLHLPMGPCYNLQPQASQSMRARPRDVLLPVDEPSCSSSSGGFSPSPLPQAKPVGITHGIPQLPRVRPEHPQPQPTHYGPSSLDLSKERAEQGASLATSYSSTAMNGNLAK
- binding [6]: binds
- binding [7]: binds

B3: EGFP-Amer1 (amino acids 942–1135) (domain or fragment, UniProt Q5JTC6 942-1135)
chain: RDSPLSLYTEPPGAYDWPAWAPCPLPVGPGPAWISPNQLDRPSSQSPYRQATCCIPPMTMSISLSVPESRAPGESGPQLARPSHLHLPMGPCYNLQPQASQSMRARPRDVLLPVDEPSCSSSSGGFSPSPLPQAKPVGITHGIPQLPRVRPEHPQPQPTHYGPSSLDLSKERAEQGASLATSYSSTAMNGNLAK
- binding [7]: binds

B4: FLAG-hDvl1 (protein, UniProt O14640 1-695)
chain: MAETKIIYHMDEEETPYLVKLPVAPERVTLADFKNVLSNRPVHAYKFFFKSMDQDFGVVKEEIFDDNAKLPCFNGRVVSWLVLAEGAHSDAGSQGTDSHTDLPPPLERTGGIGDSRPPSFHPNVASSRDGMDNETGTESMVSHRRERARRRNREEAARTNGHPRGDRRRDVGLPPDSASTALSSELESSSFVDSDEDGSTSRLSSSTEQSTSSRLIRKHKRRRRKQRLRQADRASSFSSITDSTMSLNIVTVTLNMERHHFLGISIVGQSNDRGDGGIYIGSIMKGGAVAADGRIEPGDMLLQVNDVNFENMSNDDAVRVLREIVSQTGPISLTVAKCWDPTPRSYFTVPRADPVRPIDPAAWLSHTAALTGALPRYGTSPCSSAVTRTSSSSLTSSVPGAPQLEEAPLTVKSDMSAVVRVMQLPDSGLEIRDRMWLKITIANAVIGADVVDWLYTHVEGFKERREARKYASSLLKHGFLRHTVNKITFSEQCYYVFGDLCSNLATLNLNSGSSGTSDQDTLAPLPHPAAPWPLGQGYPYQYPGPPPCFPPAYQDPGFSYGSGSTGSQQSEGSKSSGSTRSSRRAPGREKERRAAGAGGSGSESDHTAPSGVGSSWRERPAGQLSRGSSPRSQASATAPGLPPPHPTTKAYTVVGGPPGGPPVRELAAVPPELTGSRQSFQKAMGNPCEFFVDIM
- binding [8]: binds

B5: EGFP-mDvl2 (protein, UniProt Q60838 1-736)
chain: MAGSSAGGGGVGETKVIYHLDEEETPYLVKIPVPAERITLGDFKSVLQRPAGAKYFFKSMDQDFGVVKEEISDDNARLPCFNGRVVSWLVSSDTPQPEVAPPAHESRTELVPPPPPLPPLPPERTSGIGDSRPPSFHPNVSSSHENLEPETETESVVSLRRDRPRRRDSSEHGAGGHRPGGPSRLERHLAGYESSSTLMTSELESTSLGDSDEDDTMSRFSSSTEQSSASRLLKRHRRRRKQRPPRMERTSSFSSVTDSTMSLNIITVTLNMEKYNFLGISIVGQSNERGDGGIYIGSIMKGGAVAADGRIEPGDMLLQVNDMNFENMSNDDAVRVLRDIVHKPGPIVLTVAKCWDPSPQAYFTLPRNEPIQPIDPAAWVSHSAALTGAFPAYPGSSSMSTITSGSSLPDGCEGRGLSVHMDMASVTKAMAAPESGLEVRDRMWLKITIPNAFLGSDVVDWLYHHVEGFPERREARKYASGLLKAGLIRHTVNKITFSEQCYYVFGDLSGGCESYLVNLSLNDNDGSSGASDQDTLAPLPGATPWPLLPTFSYQYPAPHPYSPQPPPYHELSSYTYGGGSASSQHSEGSRSSGSTRSDGGAGRTGRPEERAPESKSGSGSESELSSRGGSLRRGGEPGGTGDGGPPPSRGSTGAPPNLRALPGLHPYGAPSGMALPYNPMMVVMMPPPPPPVSTAVQPPGAPPVRDLGSVPPELTASRQSFHMAMGNPSEFFVDVM
- binding [8]: binds
